Results deposited as PubChem BioAssay AID720505 (Drosophila RNAi Screening Center, 2013).
Test: 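Knock-downs that reduce calcium influx once internal stores are emptied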 (primary screen). Cells: Drosophila S2R+ cells. Reagent: long dsRNA against Drosophila genes. Conditions: thapsigargin (2 µM) in calcium-free buffer to empty internal stores, then 2 mM calcium added back. Measured: 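Fluo-4 signal in 384-well plates read on a FLIPR after thapsigargin (2 µM, calcium-free) store depletion and 2 mM calcium add-back; unnormalised mean endpoint per well; screen run twice, selected wells retested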. Direction: calcium signal: higher = more calcium entry after store depletion. Hit rule: 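Knock-downs counted as hits when calcium entry dropped relative to STIM1 positive and Rho1 negative controls present on each plate; roughly 1500 genes called, with reductions of differing size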. Calls: active = called as lowering calcium entry; inactive = not called.
The deposit covers about 20,000 reagents; below is an unselected part of those that have a named target and a result. In the full data, about 2,100 (10%) were called active. 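Raw plate signals without normalisation; calls rest on control-based scores that were not deposited; replicate 2 separates called from uncalled poorly.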 A plus sign joins genes that one reagent is predicted to hit. Reagent sequences are not shown. The record does not give: the amount of reagent, the time to read-out.

no.	gene	DRSC id	calcium signal, replicate 1	calcium signal, replicate 2	activity call
1	angel	DRSC04670	140	97.9	inactive
2	angel	DRSC21326	86.3	75.9	inactive
3	CG6567	DRSC16066	148	83.8	inactive
4	Ir20a	DRSC20506	102	99.6	inactive
5	Myc	DRSC18762	95.7	77.5	inactive
6	CG44153	DRSC01118	141	84.5	inactive
7	CG44153	DRSC02228	86.5	139	inactive
8	CG44153	DRSC02229	92.1	108	inactive
9	CG44153	DRSC02231	137	140	inactive
10	CG44153	DRSC02233	118	129	inactive
11	CG44153	DRSC02902	109	97.5	inactive
12	CG44153	DRSC02903	81	100	inactive
13	AMPKalpha	DRSC18714	123	160	inactive
14	CG13070	DRSC09953	110	155	inactive
15	CG14151	DRSC10153	78.7	71.5	inactive
16	CG5172	DRSC19936	69.3	113	active
17	Gyg	DRSC03850	76.1	7240	inactive
18	Gyg	DRSC04556	63	121	active
19	LSm3	DRSC15920	283	148	inactive
20	BtbVII	DRSC08151	51.9	101	inactive
21	BtbVII	DRSC08415	68.8	127	active
22	Grip	DRSC17940	238	136	inactive
23	Grip	DRSC18395	220	128	inactive
24	Smg6	DRSC16029	255	314	inactive
25	Hao + Pex6	DRSC06097	172	129	inactive
26	Hao + Pex6	DRSC06704	114	203	inactive
27	CG31769	DRSC01361	69.3	78.1	active
28	salto	DRSC06291	198	203	inactive
29	tgo	DRSC17077	124	137	inactive
30	stj	DRSC06124	214	212	inactive
31	CG31533	DRSC13018			inactive
32	alpha-Man-IIa	DRSC15393	104	94.1	inactive
33	NHP2	DRSC11229	105	130	inactive
34	CG7378	DRSC20041	83.4	111	inactive
